Laboratory results: paper PMC4941730
Results are given in words; binding and its absence hold for the method and conditions named. In cells and extracts the contact can be indirect. Some results given as binding are weak or reduced against the parent protein; the word gives no strength. Sequences can lack the tags named with a protein.

Target: T1, GFP-Ccdc85b fusion protein (mouse) (UniProt Q6PDY0)
T1 sequence: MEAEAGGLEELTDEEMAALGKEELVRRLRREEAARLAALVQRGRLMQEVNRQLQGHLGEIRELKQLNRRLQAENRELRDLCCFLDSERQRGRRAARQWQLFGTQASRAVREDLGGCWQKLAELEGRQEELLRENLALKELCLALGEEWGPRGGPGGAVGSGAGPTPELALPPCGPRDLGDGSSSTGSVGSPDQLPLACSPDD
Experiment: co-IP; heterologous cells (HEK293T by the title of Figure 7) transfected with FLAG-Eurl and GFP-Ccdc85b or GFP alone; immunoprecipitation and Western blotting

B1: FLAG-tagged Eurl (protein, UniProt Q9D7G4 1-290)
chain: MNEEEQFVSIDLNDDNICSVCKLGTDKDTLSFCHICFELNLEGVPKSNLLHTKSVRGHKDCFEKYHLIANQDCSRSKLSKSTYEGVKTIVSKKINWIVQYAQNKNLDLESECSKTSQHPLLNFRHKPEKKLLPQFDSQVPKYSAKGSAGNAGSISSYAQRILEHRENTDFRLGLLEDADALWTHSHSQAQKTEETSSGPEGTIQTQNPHYSREELNSMTLAEVVQLSAKLQQRIQEVFEELTHQVQEKDSLASELHVRHVAIEQLLKNCSKLPCLQVGRTGTRSHLPMNH
binding: binds
